For at least one entry, the source does not settle the construct or the ends of the probe. For some assays here: Protein sequences can lack the tags named with them.
Tests used:
[1] = biological target: T1, ELAC2(D550N) (Homo sapiens) (UniProt Q9BQ52); test: fluorescence anisotropy; details: 3 mM MgCl2; FA: 20 mM Tris-HCl pH 8, 80 mM NaCl, 40 mM KCl, 3 mM MgCl2, 5% glycerol, 2 mM DTT; 20 nM RNA; 20 min at 20 C, read at room temperature; recombinant protein; residues 32-826; protein details: N-terminal 6xHis-TEV (cleaved); label: internal FAM-UTP (5% spike)
T1 sequence (looked up): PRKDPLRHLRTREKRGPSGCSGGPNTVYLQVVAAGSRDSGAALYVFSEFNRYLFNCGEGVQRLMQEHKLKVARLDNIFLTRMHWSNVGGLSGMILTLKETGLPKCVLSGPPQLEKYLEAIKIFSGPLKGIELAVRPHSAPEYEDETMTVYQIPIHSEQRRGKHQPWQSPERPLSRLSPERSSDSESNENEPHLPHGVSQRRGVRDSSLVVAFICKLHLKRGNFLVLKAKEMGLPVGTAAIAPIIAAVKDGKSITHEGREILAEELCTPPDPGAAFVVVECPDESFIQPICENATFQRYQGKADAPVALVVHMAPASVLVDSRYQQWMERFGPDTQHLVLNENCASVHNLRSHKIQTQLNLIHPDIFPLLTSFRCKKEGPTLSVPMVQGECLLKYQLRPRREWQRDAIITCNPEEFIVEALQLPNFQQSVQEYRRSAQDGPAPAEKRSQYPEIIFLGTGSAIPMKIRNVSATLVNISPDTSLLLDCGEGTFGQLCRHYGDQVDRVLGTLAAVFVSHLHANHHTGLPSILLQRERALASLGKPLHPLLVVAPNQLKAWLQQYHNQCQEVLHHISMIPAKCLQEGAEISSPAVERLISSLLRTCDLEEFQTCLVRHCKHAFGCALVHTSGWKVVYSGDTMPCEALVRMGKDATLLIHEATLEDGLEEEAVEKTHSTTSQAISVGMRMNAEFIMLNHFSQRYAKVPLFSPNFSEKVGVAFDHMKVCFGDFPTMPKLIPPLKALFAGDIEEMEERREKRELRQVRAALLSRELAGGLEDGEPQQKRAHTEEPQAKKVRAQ

[2] = test system: TRMT10C + SDR5C1; test: fluorescence anisotropy; details: 3 mM MgCl2; FA: 20 mM Tris-HCl pH 8, 80 mM NaCl, 40 mM KCl, 3 mM MgCl2, 5% glycerol, 2 mM DTT; 20 nM RNA; 20 min at 20 C, read at room temperature; recombinant protein; label: internal FAM-UTP (5% spike)

UAGGAUGGGGUGUGAUAGGUGGCACGGAGAAUUUUGGAUUCUCAGGGAUGGGUUCGAUUCUCAUAGUCCUAGAAAUAAGGGGGUUUAAGCUCCUAU [0-tRNAGln-24 (FAM-labeled pre-mt-tRNAGln)]
Kd [1]: 0.301 µM
Kd [2]: 0.167 µM

Reference: article PMC11996679, “Molecular basis of human nuclear and mitochondrial tRNA 3′ processing” (Nature Structural & Molecular Biology, 2024)
